Results are given in words; binding and its absence hold for the method and conditions named. In cells and extracts the contact can be indirect. Here binding means that the protein was enriched with, or labelled near, the bait; the list need not be complete.
T1: hnRNPH1 (mouse (endogenous in testis and ovary)) (UniProt O35737)
T1 sequence: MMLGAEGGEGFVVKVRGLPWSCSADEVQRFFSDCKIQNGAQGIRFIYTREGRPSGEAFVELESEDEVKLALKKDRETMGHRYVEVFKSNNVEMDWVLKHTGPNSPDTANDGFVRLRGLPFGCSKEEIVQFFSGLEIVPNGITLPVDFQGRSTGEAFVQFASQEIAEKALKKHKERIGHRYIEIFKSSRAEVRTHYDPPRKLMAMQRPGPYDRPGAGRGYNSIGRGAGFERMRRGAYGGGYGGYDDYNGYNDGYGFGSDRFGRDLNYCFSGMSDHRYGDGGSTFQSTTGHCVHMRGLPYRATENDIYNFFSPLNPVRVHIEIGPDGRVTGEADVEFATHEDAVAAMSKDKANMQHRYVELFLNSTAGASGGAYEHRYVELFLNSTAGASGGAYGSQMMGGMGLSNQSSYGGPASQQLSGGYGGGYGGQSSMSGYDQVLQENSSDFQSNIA

The chains behind the UniProt entries cited, without tags or fusion partners.
UniProt Q91Z31: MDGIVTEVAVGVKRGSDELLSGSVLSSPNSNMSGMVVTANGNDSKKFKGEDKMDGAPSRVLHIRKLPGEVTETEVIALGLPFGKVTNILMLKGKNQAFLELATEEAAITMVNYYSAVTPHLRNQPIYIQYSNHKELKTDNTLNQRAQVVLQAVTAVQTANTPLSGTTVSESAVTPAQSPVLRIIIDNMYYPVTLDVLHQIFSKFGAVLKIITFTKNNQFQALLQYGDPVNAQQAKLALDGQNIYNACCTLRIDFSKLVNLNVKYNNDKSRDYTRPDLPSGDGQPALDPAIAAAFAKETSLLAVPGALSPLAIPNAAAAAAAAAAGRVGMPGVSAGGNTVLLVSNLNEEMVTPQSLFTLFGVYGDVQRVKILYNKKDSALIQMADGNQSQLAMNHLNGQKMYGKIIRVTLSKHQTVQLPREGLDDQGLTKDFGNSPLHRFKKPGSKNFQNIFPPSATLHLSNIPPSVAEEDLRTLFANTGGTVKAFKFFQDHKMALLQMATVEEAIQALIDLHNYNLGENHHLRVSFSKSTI
UniProt Q91ZW3: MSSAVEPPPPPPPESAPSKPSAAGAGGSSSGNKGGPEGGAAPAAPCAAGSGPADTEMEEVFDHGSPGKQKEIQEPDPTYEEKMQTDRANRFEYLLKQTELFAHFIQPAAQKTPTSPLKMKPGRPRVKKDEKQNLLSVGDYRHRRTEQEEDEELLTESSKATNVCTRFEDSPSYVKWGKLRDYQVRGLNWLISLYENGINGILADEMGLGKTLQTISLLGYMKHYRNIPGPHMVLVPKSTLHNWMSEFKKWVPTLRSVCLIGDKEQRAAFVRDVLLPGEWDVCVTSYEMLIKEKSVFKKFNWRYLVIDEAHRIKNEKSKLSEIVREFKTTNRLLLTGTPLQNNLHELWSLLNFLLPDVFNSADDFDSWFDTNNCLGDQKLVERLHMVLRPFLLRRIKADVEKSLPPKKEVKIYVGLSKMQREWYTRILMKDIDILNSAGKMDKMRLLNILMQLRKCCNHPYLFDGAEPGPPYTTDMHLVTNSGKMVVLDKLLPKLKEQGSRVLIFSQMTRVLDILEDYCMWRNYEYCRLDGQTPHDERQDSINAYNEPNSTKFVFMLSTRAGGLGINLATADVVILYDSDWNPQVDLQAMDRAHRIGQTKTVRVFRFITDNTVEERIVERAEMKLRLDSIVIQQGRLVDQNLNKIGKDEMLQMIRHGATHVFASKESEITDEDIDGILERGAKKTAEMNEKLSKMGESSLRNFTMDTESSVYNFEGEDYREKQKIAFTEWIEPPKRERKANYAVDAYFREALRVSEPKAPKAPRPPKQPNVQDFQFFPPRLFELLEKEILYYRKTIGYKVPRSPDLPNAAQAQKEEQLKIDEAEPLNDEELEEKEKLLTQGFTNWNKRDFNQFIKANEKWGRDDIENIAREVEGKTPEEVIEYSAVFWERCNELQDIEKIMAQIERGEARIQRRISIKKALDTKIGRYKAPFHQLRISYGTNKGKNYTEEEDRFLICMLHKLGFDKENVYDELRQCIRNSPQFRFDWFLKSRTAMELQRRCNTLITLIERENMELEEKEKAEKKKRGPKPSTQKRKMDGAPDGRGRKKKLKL


target: T1, hnRNPH1 (mouse (endogenous in testis and ovary)); test: affinity purification with mass spectrometry; IP-MS with the hnRNPH1 antibody from wild-type adult mouse testes

binding	Molecule
binds	PTBP2 (from UniProt Q91Z31 1-531)
binds	Smarca5 (from UniProt Q91ZW3 1-1051)
binds	Cirbp (protein, UniProt P60824 1-172) MASDEGKLFVGGLSFDTNEQALEQVFSKYGQISEVVVVKDRETQRSRGFGFVTFENIDDAKDAMMAMNGKSVDGRQIRVDQAGKSSDNRSRGYRGGSAGGRGFFRGGRSRGRGFSRGGGDRGYGGGRFESRSGGYGGSRDYYASRSQGGSYGYRSSGGSYRDSYDSYATHNE
binds	SRSF3 (protein, UniProt P84104 1-164) MHRDSCPLDCKVYVGNLGNNGNKTELERAFGYYGPLRSVWVARNPPGFAFVEFEDPRDAADAVRELDGRTLCGCRVRVELSNGEKRSRNRGPPPSWGRRPRDDYRRRSPPPRRRSPRRRSFSRSRSRSLSRDRRRERSLSRERNHKPSRSFSRSRSRSRSNERK
